Where a chain is given by its changes, count along the chain named. No constants are given. Whether binding was seen depends on the method and setting. In cells and extracts the contact can be indirect. A yes stands for co-enrichment or nearness to the bait. Other partners may have been found. For part of these data: Where a sequence is shown, tags or fusion partners need not be part of it. Blank lines part the entries; values can stand above or below the molecule they belong to.
Assays:
Assay in all cases: affinity purification with mass spectrometry; yeast lysate in TAP binding buffer (40 mM HEPES-KOH pH 7.5, 350 mM NaCl, 0.1% Tween-20), anti-FLAG IP resin or IgG beads 4 °C 4 hr, on-bead trypsin digestion, LC-MS
[1] = target: T1, Tpk2-TAP (S. cerevisiae (budding yeast)) (UniProt P06245)
T1 sequence: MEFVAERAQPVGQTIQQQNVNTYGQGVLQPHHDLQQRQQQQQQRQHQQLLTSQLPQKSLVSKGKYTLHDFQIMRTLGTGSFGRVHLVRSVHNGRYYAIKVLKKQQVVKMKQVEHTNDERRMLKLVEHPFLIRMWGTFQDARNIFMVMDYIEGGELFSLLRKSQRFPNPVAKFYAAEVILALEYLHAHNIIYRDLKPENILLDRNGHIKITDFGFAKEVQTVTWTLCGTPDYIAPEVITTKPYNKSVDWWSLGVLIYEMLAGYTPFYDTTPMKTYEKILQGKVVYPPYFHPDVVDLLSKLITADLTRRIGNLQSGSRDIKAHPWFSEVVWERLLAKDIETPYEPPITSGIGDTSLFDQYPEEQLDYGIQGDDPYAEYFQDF

[2] = target: T2, Jhd2-FLAG (S. cerevisiae (budding yeast)) (UniProt P47156)
T2 sequence (chain, phosphoserine at 321 and 340 (phosphorylated in vivo by Tpk2; extent not stated)): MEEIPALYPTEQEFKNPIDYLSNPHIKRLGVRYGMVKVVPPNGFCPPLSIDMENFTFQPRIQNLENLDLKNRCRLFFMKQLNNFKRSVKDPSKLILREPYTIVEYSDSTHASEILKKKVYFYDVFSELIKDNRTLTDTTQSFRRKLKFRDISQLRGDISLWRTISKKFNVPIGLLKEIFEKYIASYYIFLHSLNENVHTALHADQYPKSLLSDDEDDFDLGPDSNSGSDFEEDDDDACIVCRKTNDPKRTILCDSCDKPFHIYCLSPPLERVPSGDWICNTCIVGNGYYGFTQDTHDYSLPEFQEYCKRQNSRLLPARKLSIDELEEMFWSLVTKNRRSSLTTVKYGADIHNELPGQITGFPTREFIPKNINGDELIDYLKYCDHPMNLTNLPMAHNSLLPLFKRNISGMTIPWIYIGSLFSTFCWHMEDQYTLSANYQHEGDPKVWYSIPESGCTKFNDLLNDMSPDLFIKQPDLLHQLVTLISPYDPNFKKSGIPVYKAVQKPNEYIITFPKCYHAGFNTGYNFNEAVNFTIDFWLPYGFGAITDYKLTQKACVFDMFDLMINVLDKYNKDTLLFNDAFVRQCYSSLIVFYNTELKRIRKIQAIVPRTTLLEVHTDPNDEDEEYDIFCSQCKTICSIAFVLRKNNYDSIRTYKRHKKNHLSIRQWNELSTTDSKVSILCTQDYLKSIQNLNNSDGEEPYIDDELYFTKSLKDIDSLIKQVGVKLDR

[3] = target: T3, Jhd2-S321A, S340A-FLAG (S. cerevisiae (budding yeast)) (UniProt P47156)
T3 sequence: T2 sequence (chain, phosphoserine at 321 and 340 (phosphorylated in vivo by Tpk2; extent not stated)) with S321A, S340A

binding [1]: binds
Molecule: Jhd2 (in Tpk2-TAP cells) (from UniProt P47156 1-728) (enzyme)

binding [2]: binds
binding [3]: binds
B1: Rpd3 (enzyme, UniProt P32561 1-433)
chain: MVYEATPFDPITVKPSDKRRVAYFYDADVGNYAYGAGHPMKPHRIRMAHSLIMNYGLYKKMEIYRAKPATKQEMCQFHTDEYIDFLSRVTPDNLEMFKRESVKFNVGDDCPVFDGLYEYCSISGGGSMEGAARLNRGKCDVAVNYAGGLHHAKKSEASGFCYLNDIVLGIIELLRYHPRVLYIDIDVHHGDGVEEAFYTTDRVMTCSFHKYGEFFPGTGELRDIGVGAGKNYAVNVPLRDGIDDATYRSVFEPVIKKIMEWYQPSAVVLQCGGDSLSGDRLGCFNLSMEGHANCVNYVKSFGIPMMVVGGGGYTMRNVARTWCFETGLLNNVVLDKDLPYNEYYEYYGPDYKLSVRPSNMFNVNTPEYLDKVMTNIFANLENTKYAPSVQLNHTPRDAEDLGDVEEDSAEAKDTKGGSQYARDLHVEHDNEFY

binding [2]: binds
B2: Tpk3 (enzyme, UniProt P05986 1-398)
chain: MYVDPMNNNEIRKLSITAKTETTPDNVGQDIPVNAHSVHEECSSNTPVEINGRNSGKLKEEASAGICLVKKPMLQYRDTSGKYSLSDFQILRTLGTGSFGRVHLIRSNHNGRFYALKTLKKHTIVKLKQVEHTNDERRMLSIVSHPFIIRMWGTFQDSQQVFMVMDYIEGGELFSLLRKSQRFPNPVAKFYAAEVCLALEYLHSKDIIYRDLKPENILLDKNGHIKITDFGFAKYVPDVTYTLCGTPDYIAPEVVSTKPYNKSVDWWSFGVLIYEMLAGYTPFYNSNTMKTYENILNAELKFPPFFHPDAQDLLKKLITRDLSERLGNLQNGSEDVKNHPWFNEVIWEKLLARYIETPYEPPIQQGQGDTSQFDRYPEEEFNYGIQGEDPYMDLMKEF

binding [2]: binds
B3: Tpk1 (enzyme, UniProt P06244 1-397)
chain: MSTEEQNGGGQKSLDDRQGEESQKGETSERETTATESGNESKSVEKEGGETQEKPKQPHVTYYNEEQYKQFIAQARVTSGKYSLQDFQILRTLGTGSFGRVHLIRSRHNGRYYAMKVLKKEIVVRLKQVEHTNDERLMLSIVTHPFIIRMWGTFQDAQQIFMIMDYIEGGELFSLLRKSQRFPNPVAKFYAAEVCLALEYLHSKDIIYRDLKPENILLDKNGHIKITDFGFAKYVPDVTYTLCGTPDYIAPEVVSTKPYNKSIDWWSFGILIYEMLAGYTPFYDSNTMKTYEKILNAELRFPPFFNEDVKDLLSRLITRDLSQRLGNLQNGTEDVKNHPWFKEVVWEKLLSRNIETPYEPPIQQGQGDTSQFDKYPEEDINYGVQGEDPYADLFRDF

binding [2]: binds
B4: Tpk2 (enzyme, UniProt P06245 1-380)
chain: T1 sequence
